For five molecules, binding results are on record in paper PMC11633749, “Identification of the Wnt signal peptide that directs secretion on extracellular vesicles” (Science Advances, 2024).

Assay [1] has as its target T1, full-length Wnt7a-HA (Wnt7a-FL) (human) (UniProt O00755).
T1 sequence: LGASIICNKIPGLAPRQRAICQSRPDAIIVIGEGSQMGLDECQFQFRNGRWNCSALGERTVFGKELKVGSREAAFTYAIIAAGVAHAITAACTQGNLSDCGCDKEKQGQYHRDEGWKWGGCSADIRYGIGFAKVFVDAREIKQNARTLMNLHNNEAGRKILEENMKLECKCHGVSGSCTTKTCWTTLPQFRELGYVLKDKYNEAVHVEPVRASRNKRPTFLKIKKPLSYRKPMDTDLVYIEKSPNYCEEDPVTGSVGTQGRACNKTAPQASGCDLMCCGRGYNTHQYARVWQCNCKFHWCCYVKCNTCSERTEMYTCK
The experiment in a line: co-IP; lysate of HEK293T cells overexpressing Wnt7a-HA; immunoprecipitation with COPB2 or HA antibody on Dynabeads Protein G; 50 mM tris pH 7.5, 150 mM NaCl, 0.5% Triton X-100; immunoblot.

The next assay deals with T2, myc-tagged Wnt7a-BirA (UniProt O00755).
T2 sequence: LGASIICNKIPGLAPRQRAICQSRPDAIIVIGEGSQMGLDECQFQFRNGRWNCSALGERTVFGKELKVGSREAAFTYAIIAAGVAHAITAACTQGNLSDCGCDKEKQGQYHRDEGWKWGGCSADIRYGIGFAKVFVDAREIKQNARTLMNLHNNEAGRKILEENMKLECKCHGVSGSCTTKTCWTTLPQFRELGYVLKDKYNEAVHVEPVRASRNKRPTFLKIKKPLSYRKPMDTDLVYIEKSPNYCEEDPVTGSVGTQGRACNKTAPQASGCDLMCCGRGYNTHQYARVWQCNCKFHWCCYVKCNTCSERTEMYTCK
The experiment in a line: proximity ligation; Duolink PLA in fixed murine primary myotubes expressing Wnt7a-BirA or BirA; antibodies to Wnt7a and COPA or COPB2.

Assay [2] concerns the target T3, COPB2_(1–304), N-terminal WD repeat of COPB2 (S. cerevisiae) (UniProt P41811).
T3 sequence: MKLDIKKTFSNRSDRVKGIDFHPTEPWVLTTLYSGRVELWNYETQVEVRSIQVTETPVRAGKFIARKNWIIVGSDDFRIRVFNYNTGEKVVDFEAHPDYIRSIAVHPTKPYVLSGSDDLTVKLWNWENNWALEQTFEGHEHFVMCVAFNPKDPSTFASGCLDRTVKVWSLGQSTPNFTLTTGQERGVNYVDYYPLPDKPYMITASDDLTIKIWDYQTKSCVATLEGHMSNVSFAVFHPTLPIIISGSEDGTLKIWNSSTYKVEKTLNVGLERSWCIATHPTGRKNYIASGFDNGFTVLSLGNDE
The experiment in a line: crystal structure; COPB2 1-304 at 10 mg/ml (0.28 mM) incubated with 3 mM LKIKKP peptide; crystals in 0.1 M Hepes pH 7.0, 2.0 M AmSO4; molecular replacement with PDB 2YNN; both purified.

Assay [3] deals with T3, COPB2_(1–304), N-terminal WD repeat of COPB2 (S. cerevisiae). The experiment in a line: condition: 450 μM of each peptide into 20 μM COPB2_(1–304); ITC; 450 μM of each peptide titrated into 20 μM COPB2 1-304; 25°C; 150 mM NaCl, 0.5 mM TCEP, 25 mM Hepes pH 7.5; one-site model; both purified.
Assay [4] has as its target T4, COPB2 (coatomer protein), human (human (endogenous in HEK293T)) (UniProt P35606).
T4 sequence: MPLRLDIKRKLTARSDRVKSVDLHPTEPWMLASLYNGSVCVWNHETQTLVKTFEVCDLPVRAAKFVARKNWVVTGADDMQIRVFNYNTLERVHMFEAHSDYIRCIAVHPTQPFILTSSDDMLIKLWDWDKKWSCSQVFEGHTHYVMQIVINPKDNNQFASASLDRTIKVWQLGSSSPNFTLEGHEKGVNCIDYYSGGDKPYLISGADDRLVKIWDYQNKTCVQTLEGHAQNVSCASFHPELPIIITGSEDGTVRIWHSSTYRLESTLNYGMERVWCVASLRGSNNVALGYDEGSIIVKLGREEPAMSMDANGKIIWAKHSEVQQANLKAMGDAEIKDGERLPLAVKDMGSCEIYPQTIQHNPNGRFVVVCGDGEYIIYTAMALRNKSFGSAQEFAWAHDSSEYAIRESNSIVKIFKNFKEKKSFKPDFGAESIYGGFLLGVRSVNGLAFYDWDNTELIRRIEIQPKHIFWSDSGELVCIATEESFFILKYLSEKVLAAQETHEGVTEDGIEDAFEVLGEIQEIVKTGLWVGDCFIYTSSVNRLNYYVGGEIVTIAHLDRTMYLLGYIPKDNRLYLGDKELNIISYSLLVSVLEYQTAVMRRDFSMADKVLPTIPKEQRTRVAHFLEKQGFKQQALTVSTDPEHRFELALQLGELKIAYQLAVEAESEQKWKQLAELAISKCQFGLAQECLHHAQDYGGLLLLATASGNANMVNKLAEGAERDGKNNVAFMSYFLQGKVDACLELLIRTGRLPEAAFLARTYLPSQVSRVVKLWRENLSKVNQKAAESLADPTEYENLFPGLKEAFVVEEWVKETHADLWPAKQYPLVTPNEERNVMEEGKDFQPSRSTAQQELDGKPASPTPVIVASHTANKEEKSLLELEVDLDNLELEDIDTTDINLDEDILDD
The experiment in a line: co-IP; lysate of HEK293T cells overexpressing Wnt7a-HA; immunoprecipitation with COPB2 or HA antibody on Dynabeads Protein G; 50 mM tris pH 7.5, 150 mM NaCl, 0.5% Triton X-100; immunoblot.

No constants are given. Whether binding was seen depends on the method and setting. For some assays here: In cells and extracts the contact can be indirect. Some results given as binding are weak or reduced against the parent protein; the word gives no strength. For some assays here: Where a sequence is shown, tags or fusion partners need not be part of it.

B1: COPB2 (coatomer protein), human (protein, UniProt P35606 1-906)
chain: MPLRLDIKRKLTARSDRVKSVDLHPTEPWMLASLYNGSVCVWNHETQTLVKTFEVCDLPVRAAKFVARKNWVVTGADDMQIRVFNYNTLERVHMFEAHSDYIRCIAVHPTQPFILTSSDDMLIKLWDWDKKWSCSQVFEGHTHYVMQIVINPKDNNQFASASLDRTIKVWQLGSSSPNFTLEGHEKGVNCIDYYSGGDKPYLISGADDRLVKIWDYQNKTCVQTLEGHAQNVSCASFHPELPIIITGSEDGTVRIWHSSTYRLESTLNYGMERVWCVASLRGSNNVALGYDEGSIIVKLGREEPAMSMDANGKIIWAKHSEVQQANLKAMGDAEIKDGERLPLAVKDMGSCEIYPQTIQHNPNGRFVVVCGDGEYIIYTAMALRNKSFGSAQEFAWAHDSSEYAIRESNSIVKIFKNFKEKKSFKPDFGAESIYGGFLLGVRSVNGLAFYDWDNTELIRRIEIQPKHIFWSDSGELVCIATEESFFILKYLSEKVLAAQETHEGVTEDGIEDAFEVLGEIQEIVKTGLWVGDCFIYTSSVNRLNYYVGGEIVTIAHLDRTMYLLGYIPKDNRLYLGDKELNIISYSLLVSVLEYQTAVMRRDFSMADKVLPTIPKEQRTRVAHFLEKQGFKQQALTVSTDPEHRFELALQLGELKIAYQLAVEAESEQKWKQLAELAISKCQFGLAQECLHHAQDYGGLLLLATASGNANMVNKLAEGAERDGKNNVAFMSYFLQGKVDACLELLIRTGRLPEAAFLARTYLPSQVSRVVKLWRENLSKVNQKAAESLADPTEYENLFPGLKEAFVVEEWVKETHADLWPAKQYPLVTPNEERNVMEEGKDFQPSRSTAQQELDGKPASPTPVIVASHTANKEEKSLLELEVDLDNLELEDIDTTDINLDEDILDD
Turning to B1, the binding result in assay [1] is “binds”.

B2: COPB2 (coatomer protein), mouse (protein, UniProt O55029 1-905)
chain: MPLRLDIKRKLTARSDRVKSVDLHPTEPWMLASLYNGSVCVWNHETQTLVKTFEVCDLPVRAAKFVARKNWVVTGADDMQIRVFNYNTLERVHMFEAHSDYIRCIAVHPTQPFILTSSDDMLIKLWDWDKKWSCSQVFEGHTHYVMQIVINPKDNNQFASASLDRTIKVWQLGSSSPNFTLEGHEKGVNCIDYYSGGDKPYLISGADDRLVKIWDYQNKTCVQTLEGHAQNVSCASFHPELPIIITGSEDGTVRIWHSSTYRLESTLNYGMERVWCVASLRGSNNVALGYDEGSIIVKLGREEPAMSMDANGKIIWAKHSEVQQANLKAMGDTEIKDGERLPLAVKDMGSCEIYPQTIQHNPNGRFVVVCGDGEYIIYTAMALRNKSFGSAQEFAWAHDSSEYAIRESNSIVKIFKNFKEKKSFKPDFGAESIYGGFLLGVRSVNGLAFYDWENTELIRRIEIQPKHIFWSDSGELVCIATEESFFILKYLSEKVLAAQETHEGVTEDGIEDAFEVLGEIQEIVKTGLWVGDCFIYTSSVNRLNYYVGGEIVTIAHLDRTMYLLGYIPKDNRLYLGDKELNIVSYSLLVSVLEYQTAVMRRDFSMADKVLPTIPKEQRTRVAHFLEKQGFKQQALTVSTDPEHRFELALQLGELKIAYQLAVEAESEQKWKQLAELAISKCQFSLAQECLHHAQDYGGLLLLATASGNASMVNKLAEGAERDGKNNVAFMSYFLQGKLDACLELLIRTGRLPEAAFLARTYLPSQVSRVVKLWRENLSKVNQKAAESLADPTEYENLFPGLKEAFVVEEWVKETHADLWPAKQYPLVTPNEERNVMEEAKGFQPSRPTAQQEPDGKPASSPVIMASQTTHKEEKSLLELEVDLDNLELEDIDTTDINLDEDILDD
Consider B2, for which the binding entry in the assay with myc-tagged Wnt7a-BirA is listed as “binds”.

B3: Wnt_(252–257) peptide (LKIKKP) (peptide)
peptide: LKIKKP
notes: also called C-terminal half of the polypeptide
In the case of B3, in assay [2], the binding entry is “binds”.

B4: N-terminal half of the EBP polypeptide (244 to 250) (peptide, UniProt O00755 244-250)
peptide: SRNKRPT
In the case of B4, the binding result in assay [3] was “no binding”.

B5: full-length Wnt7a-HA (Wnt7a-FL) (protein, UniProt O00755 32-349)
chain: LGASIICNKIPGLAPRQRAICQSRPDAIIVIGEGSQMGLDECQFQFRNGRWNCSALGERTVFGKELKVGSREAAFTYAIIAAGVAHAITAACTQGNLSDCGCDKEKQGQYHRDEGWKWGGCSADIRYGIGFAKVFVDAREIKQNARTLMNLHNNEAGRKILEENMKLECKCHGVSGSCTTKTCWTTLPQFRELGYVLKDKYNEAVHVEPVRASRNKRPTFLKIKKPLSYRKPMDTDLVYIEKSPNYCEEDPVTGSVGTQGRACNKTAPQASGCDLMCCGRGYNTHQYARVWQCNCKFHWCCYVKCNTCSERTEMYTCK
In the case of B5, the binding result in assay [4] was “binds”.
